The values that follow come from patent US20260008817A1, “CYCLIC PEPTIDE OR SALT THEREOF, AND USES THEREOF” (FUJIFILM Corporation, priority 2023, published 2026).

Chains of the proteins cited; added tags and fusions are not shown. Lines headed by an entry give the natural chain unless they say otherwise; changes in a name come on top. A line that says so, or that is headed by a name, gives the form on record, which may keep a tag or linker. Residues count along the entry.
FGFR1 Protein, Human, Recombinant (His Tag) (Sino Biological, 10616-H08H) (P11362, form named): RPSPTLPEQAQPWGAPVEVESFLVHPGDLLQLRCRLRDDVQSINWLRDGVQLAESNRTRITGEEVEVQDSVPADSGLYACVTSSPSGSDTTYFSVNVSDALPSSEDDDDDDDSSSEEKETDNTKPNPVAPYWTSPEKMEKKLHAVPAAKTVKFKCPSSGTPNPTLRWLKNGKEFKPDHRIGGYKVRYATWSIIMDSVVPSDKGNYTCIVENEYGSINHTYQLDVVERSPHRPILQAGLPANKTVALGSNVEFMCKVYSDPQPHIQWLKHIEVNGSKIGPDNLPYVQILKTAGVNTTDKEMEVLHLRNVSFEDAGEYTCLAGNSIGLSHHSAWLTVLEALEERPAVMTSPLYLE
UniProt P22607, residues 23-375: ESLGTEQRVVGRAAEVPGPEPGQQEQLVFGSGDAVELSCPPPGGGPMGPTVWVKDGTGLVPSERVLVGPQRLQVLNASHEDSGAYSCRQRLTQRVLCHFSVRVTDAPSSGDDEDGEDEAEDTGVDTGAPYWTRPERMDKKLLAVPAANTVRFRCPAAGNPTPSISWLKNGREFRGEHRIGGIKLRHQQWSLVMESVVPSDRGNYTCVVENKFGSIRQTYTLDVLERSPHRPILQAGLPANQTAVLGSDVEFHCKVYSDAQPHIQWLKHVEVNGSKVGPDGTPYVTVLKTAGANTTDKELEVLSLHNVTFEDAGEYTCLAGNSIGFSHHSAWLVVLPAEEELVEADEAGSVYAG

Experiment [1] deals with FGFR1 Protein, Human, Recombinant (His Tag) (Sino Biological, 10616-H08H) (human) (UniProt P11362). In words: SPR, FGFR over immobilized peptide. In general terms: SPR reads the build-up and loss of mass on a sensor chip optically.
Experiment [2] addresses FGFR3 Protein, Human, Recombinant (ECD, His Tag) (Sino Biological, 16044-H08H) (human) (UniProt P22607). Nature of the experiment: SPR, FGFR over immobilized peptide.

These are yes or no findings as the source states them, for the method shown. Some results given as binding are weak or reduced against the parent protein; the word gives no strength.

B1: cyclic peptide SEQ ID NO: 335 (peptide)
peptide: ACVWTFDRHAQEISQALHKVKKK
modifications: (C) and (K(acetyl)) joined by a thioether ring
Turning to B1, the binding result in experiment [1] and in experiment [2] was “binds” throughout.
